Paper PMC11550886
These are yes or no findings as the source states them, for the method shown. For some of these results: Binding seen in cells or lysates may run through a third protein. Some results given as binding are weak or reduced against the parent protein; the word gives no strength.

The chains behind the UniProt entries cited, without tags or fusion partners. Where a name states a change or a piece, a line headed by the entry shows the natural chain unless it says otherwise. Residues count along the entry.
UniProt P29400, residues 1461-1685: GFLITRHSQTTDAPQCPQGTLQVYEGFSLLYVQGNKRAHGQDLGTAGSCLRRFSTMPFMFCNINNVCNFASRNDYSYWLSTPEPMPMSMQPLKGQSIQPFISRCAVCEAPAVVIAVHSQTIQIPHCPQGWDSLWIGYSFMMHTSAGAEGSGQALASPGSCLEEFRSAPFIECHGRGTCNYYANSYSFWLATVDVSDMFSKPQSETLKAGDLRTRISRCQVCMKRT
UniProt P56199: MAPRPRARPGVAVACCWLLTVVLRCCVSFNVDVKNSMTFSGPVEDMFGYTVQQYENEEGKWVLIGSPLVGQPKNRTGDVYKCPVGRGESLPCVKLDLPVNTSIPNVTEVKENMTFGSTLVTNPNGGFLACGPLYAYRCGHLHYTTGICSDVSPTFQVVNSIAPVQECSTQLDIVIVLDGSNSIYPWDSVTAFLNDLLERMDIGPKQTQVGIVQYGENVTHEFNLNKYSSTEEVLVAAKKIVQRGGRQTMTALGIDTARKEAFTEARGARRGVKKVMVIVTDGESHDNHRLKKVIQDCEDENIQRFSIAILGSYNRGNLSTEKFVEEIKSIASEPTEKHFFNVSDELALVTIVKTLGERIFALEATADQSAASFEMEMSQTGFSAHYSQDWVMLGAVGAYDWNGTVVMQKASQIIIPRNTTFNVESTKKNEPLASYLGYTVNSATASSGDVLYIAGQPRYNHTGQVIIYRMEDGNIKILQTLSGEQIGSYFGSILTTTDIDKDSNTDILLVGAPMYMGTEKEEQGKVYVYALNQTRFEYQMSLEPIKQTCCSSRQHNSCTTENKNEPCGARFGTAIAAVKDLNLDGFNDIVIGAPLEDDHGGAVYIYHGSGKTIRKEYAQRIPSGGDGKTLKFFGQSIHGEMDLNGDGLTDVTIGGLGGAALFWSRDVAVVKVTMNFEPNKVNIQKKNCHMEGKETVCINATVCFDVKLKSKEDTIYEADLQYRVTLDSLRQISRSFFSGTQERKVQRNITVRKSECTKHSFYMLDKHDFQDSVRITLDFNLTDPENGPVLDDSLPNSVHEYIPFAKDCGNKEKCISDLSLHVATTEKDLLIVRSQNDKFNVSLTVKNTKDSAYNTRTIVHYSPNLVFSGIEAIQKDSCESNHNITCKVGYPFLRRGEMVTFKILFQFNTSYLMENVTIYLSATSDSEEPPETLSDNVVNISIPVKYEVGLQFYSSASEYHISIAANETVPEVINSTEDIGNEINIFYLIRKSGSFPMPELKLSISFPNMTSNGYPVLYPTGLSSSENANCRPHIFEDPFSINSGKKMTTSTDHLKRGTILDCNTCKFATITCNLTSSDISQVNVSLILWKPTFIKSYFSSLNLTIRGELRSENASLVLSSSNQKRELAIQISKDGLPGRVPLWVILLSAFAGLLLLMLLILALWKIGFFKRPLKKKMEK
UniProt P05556: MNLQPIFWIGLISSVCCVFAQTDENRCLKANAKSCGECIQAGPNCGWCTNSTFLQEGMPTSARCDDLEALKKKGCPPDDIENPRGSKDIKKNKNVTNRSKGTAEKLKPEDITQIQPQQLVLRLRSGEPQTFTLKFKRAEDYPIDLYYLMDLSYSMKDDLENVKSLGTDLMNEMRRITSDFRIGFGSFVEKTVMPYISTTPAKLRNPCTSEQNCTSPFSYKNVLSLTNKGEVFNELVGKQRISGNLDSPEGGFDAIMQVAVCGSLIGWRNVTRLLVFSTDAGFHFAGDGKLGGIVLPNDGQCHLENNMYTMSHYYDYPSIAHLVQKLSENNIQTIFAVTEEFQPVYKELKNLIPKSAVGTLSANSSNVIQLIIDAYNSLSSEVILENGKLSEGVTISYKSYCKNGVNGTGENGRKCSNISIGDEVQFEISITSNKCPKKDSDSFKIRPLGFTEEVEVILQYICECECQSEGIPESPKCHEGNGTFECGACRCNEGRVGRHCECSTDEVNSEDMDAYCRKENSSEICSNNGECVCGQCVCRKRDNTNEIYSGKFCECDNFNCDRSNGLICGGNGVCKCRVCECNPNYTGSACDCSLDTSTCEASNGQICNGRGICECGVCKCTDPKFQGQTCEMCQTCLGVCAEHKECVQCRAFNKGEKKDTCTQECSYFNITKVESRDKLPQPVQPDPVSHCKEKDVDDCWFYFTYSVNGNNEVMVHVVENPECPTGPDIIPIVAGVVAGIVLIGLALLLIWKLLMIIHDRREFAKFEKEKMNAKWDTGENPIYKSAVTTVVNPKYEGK

Legend:
[1] = molecular target: T1, pentastatin (human); test: ELISA; solid-phase binding assay: plate coated with 10 µg/mL NC1, pentastatin, random peptide or BSA in 50 mM NaHCO3 pH 9.6, 4°C overnight; α1β1-integrin 1 µg/mL in TBS with 1% BSA, 1 mM MgCl2, 2 mM CaCl2, RT 3 h; detected with biotinylated anti-β1-integrin antibody and streptavidin-peroxidase; normalised to BSA-coated wells; both purified
T1 sequence (peptide): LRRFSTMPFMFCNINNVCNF

[2] = molecular target: recombinant C-terminal NC1 fragment (Gly1461 ~ Thr1685) of the collagen IVα5 polypeptide (human) (UniProt P29400); test: as above
[3] = molecular target: random peptide control; test: condition: α1β1-integrin 1 µg/mL; peptide coated at 10 µg/mL; ELISA; solid-phase binding assay: plate coated with 10 µg/mL NC1, pentastatin, random peptide or BSA in 50 mM NaHCO3 pH 9.6, 4°C overnight; α1β1-integrin 1 µg/mL in TBS with 1% BSA, 1 mM MgCl2, 2 mM CaCl2, RT 3 h; detected with biotinylated anti-β1-integrin antibody and streptavidin-peroxidase; normalised to BSA-coated wells; both purified
[4] = molecular target: recombinant C-terminal NC1 fragment (Gly1461 ~ Thr1685) of the collagen IVα5 polypeptide (human) (UniProt P29400); test: co-IP; confluent adherent hPAECs exposed to recombinant NC1 for 10 min, cross-linked with 1% PFA, quenched with 100 mM glycine; precleared lysates incubated with 10 µg/mL monoclonal C-terminal collagen IVα5 antibody, captured on Protein G Sepharose; blotted with anti-β1-integrin antibody (clone MB1.2); only the target purified

Row | Substance | binding [1] | binding [2] | binding [3] | binding [4]
1 | α1β1-integrin (from UniProt P56199 29-1141; P05556 21-728) (complex) | binds | binds | no binding | –
2 | β1-integrin subunit, endogenous on human pulmonary arterial endothelial cells (hPAECs) (from UniProt P05556 21-798) (receptor) | – | – | – | binds
